From PubChem BioAssay AID256 (DTP/NCI, 2004)
The list shows only some results of the screen, not a fair sample: it is rich in T/C values a quarter to a half above the control, in often repeated tests (any T/C) and in doses without a T/C. Further doses and runs are listed elsewhere. T/C gives the treated animals as a percentage of the vehicle group. Some doses have a count of surviving animals in place of a T/C: the source files T/C as zero there, which appears to mark a toxic dose or a test without result, not a measured value. Some doses without a T/C left all or most animals alive at the check, yet need not have been tolerated: survival well below the control is almost never listed, so the zero probably covers shortened survival too. Survivors were counted at the toxicity check, usually on the fifth day, unless a day is given; later deaths do not show. Schedules are NCI's codes, read here as Q, the interval in days (D) or hours (H), X, the number of doses. Some structures stand for samples that the source files as different forms (salt, stereo form or complex); doses refer to the form tested. Signs of the kind (2×) give the number of equal values in this list. Some doses were run more than once; their values stand side by side, smallest first. For survival time, the PubChem record calls one and a half times the control and up active, and a quarter to a half above the control has no call in these data; cut-offs in other NCI protocols can differ. Some T/C values carry the count of animals alive at the toxicity check (mostly the fifth day); where none is given, no animal had died by that day.

System: CD2F1 mice, L1210 leukemia ip, survival T/C
Experiment: NCI In Vivo Anticancer Drug Screen. Data for tumor model L1210 Leukemia (intraperitoneal) in CD2F1 (CDF1) mice
Details: higher T/C = longer survival
How it was run: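 Tumor-bearing mice (transplanted tumor) were split into treated and vehicle control groups, and the measured endpoint of each treated group was divided by that of its vehicle controls.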

[1] = T/C endpoint: mean survival time, dose: 54.0 mg/kg/injection, schedule: Q01DX001 (iv), vehicle: saline

`O=C1c2ccccc2C(=O)c2c(NCCNCCO)ccc(NCCNCCO)c21` was tested, and the T/C (T/C endpoint: mean survival time, dose: 1.0 mg/kg/injection, schedule: Q01DX009 (ip), vehicle: clinical formulation) was 131 % of control, the T/C (T/C endpoint: mean survival time, dose: 1.0 mg/kg/injection, schedule: Q01DX009 (ip), vehicle: saline) was 130 % of control and the T/C (T/C endpoint: mean survival time, dose: 1.75 mg/kg/injection, schedule: Q01DX009 (ip), vehicle: Klucel (hydroxypropylcellulose) (HPC)) was 133 % of control [5 of 6 alive]. For the same molecule, the T/C (T/C endpoint: mean survival time, dose: 2.0 mg/kg/injection, schedule: Q01DX009 (ip), vehicle: acid diluted with saline) was 148 % of control, the T/C (T/C endpoint: mean survival time, dose: 2.0 mg/kg/injection, schedule: Q01DX009 (ip), vehicle: clinical formulation) was 139 % of control and the T/C (T/C endpoint: mean survival time, dose: 2.0 mg/kg/injection, schedule: Q01DX009 (ip), vehicle: water) was 126 % of control. The T/C (T/C endpoint: mean survival time, dose: 2.5 mg/kg/injection, schedule: Q01DX009 (ip), vehicle: saline) was 140 % of control, the T/C (T/C endpoint: mean survival time, dose: 4.0 mg/kg/injection, schedule: Q01DX005 (ip), vehicle: saline) was 131 % of control and the T/C (T/C endpoint: mean survival time, dose: 4.0 mg/kg/injection, schedule: Q01DX009 (ip), vehicle: water) was 146 % of control. The T/C (T/C endpoint: mean survival time, dose: 8.0 mg/kg/injection, schedule: Q01DX005 (ip), vehicle: saline) was 149 % of control, the T/C (T/C endpoint: mean survival time, dose: 8.0 mg/kg/injection, schedule: Q01DX005 (iv), vehicle: saline) was 132 % of control and the T/C (T/C endpoint: mean survival time, dose: 8.0 mg/kg/injection, schedule: Q04DX003 (ip), vehicle: saline) was 134 % of control. For the same molecule, the T/C (T/C endpoint: mean survival time, dose: 16.0 mg/kg/injection, schedule: Q01DX005 (iv), vehicle: saline, evaluated on day 30) was 147 % of control, the T/C (T/C endpoint: mean survival time, dose: 16.0 mg/kg/injection, schedule: Q01DX005 (iv), vehicle: saline, evaluated on day 60) was 148 % of control and the T/C (T/C endpoint: mean survival time, dose: 16.0 mg/kg/injection, schedule: Q01DX009 (ip), vehicle: saline with Tween-80) was 131 % of control. For the same molecule, the T/C (T/C endpoint: mean survival time, dose: 16.0 mg/kg/injection, schedule: Q04DX003 (ip), vehicle: saline) was 137 % of control, the T/C (T/C endpoint: mean survival time, dose: 19.4 mg/kg/injection, schedule: Q01DX001 (ip), vehicle: saline) was 136 % of control and the T/C (T/C endpoint: mean survival time, dose: 21.0 mg/kg/injection, schedule: Q01DX009 (ip), vehicle: saline) was 126 % of control. The survivor count (T/C endpoint: mean survival time, dose: 32.0 mg/kg/injection, schedule: Q01DX005 (iv), vehicle: clinical formulation) was 4 of 8, the survivor count (T/C endpoint: mean survival time, dose: 32.0 mg/kg/injection, schedule: Q01DX005 (iv), vehicle: saline) was 4 of 8 and the survivor count (T/C endpoint: mean survival time, dose: 32.0 mg/kg/injection, schedule: Q01DX009 (ip), vehicle: acid diluted with saline) was 6 of 6 (2×). The T/C (T/C endpoint: mean survival time, dose: 32.0 mg/kg/injection, schedule: Q01DX009 (ip), vehicle: water) was 128 % of control, the survivor count (T/C endpoint: mean survival time, dose: 32.0 mg/kg/injection, schedule: Q04DX003 (ip), vehicle: water) was 5 of 6 and the T/C (T/C endpoint: mean survival time, dose: 32.0 mg/kg/injection, schedule: Q04DX003 (iv), vehicle: saline) was 142 % of control. The T/C (T/C endpoint: mean survival time, dose: 42.0 mg/kg/injection, schedule: Q01DX009 (ip), vehicle: Klucel (hydroxypropylcellulose) (HPC)) was 134 % of control, the T/C [1] was 129 % of control [9 of 10 alive] and the survivor count [1] was 6 of 6. The T/C (T/C endpoint: mean survival time, dose: 62.5 mg/kg/injection, schedule: Q01DX009 (ip), vehicle: Klucel (hydroxypropylcellulose) (HPC)) was 134 % of control, the survivor count (T/C endpoint: mean survival time, dose: 64.0 mg/kg/injection, schedule: Q01DX005 (iv), vehicle: saline) was 0 of 10 and the survivor count (T/C endpoint: mean survival time, dose: 64.0 mg/kg/injection, schedule: Q01DX009 (ip), vehicle: saline with Tween-80) was 4 of 6. The survivor count (T/C endpoint: mean survival time, dose: 64.0 mg/kg/injection, schedule: Q01DX009 (ip), vehicle: water) was 5 of 6, the survivor count (T/C endpoint: mean survival time, dose: 64.0 mg/kg/injection, schedule: Q04DX003 (ip), vehicle: water) was 4 of 6 and the survivor count (T/C endpoint: mean survival time, dose: 64.0 mg/kg/injection, schedule: Q04DX003 (iv), vehicle: saline) was 0 of 10. For the same molecule, the T/C (T/C endpoint: mean survival time, dose: 90.0 mg/kg/injection, schedule: Q01DX001 (ip), vehicle: saline) was 136 % of control [7 of 8 alive], the survivor count (T/C endpoint: mean survival time, dose: 90.0 mg/kg/injection, schedule: Q01DX001 (iv), vehicle: saline) was 2 of 10 and the survivor count (T/C endpoint: mean survival time, dose: 128.0 mg/kg/injection, schedule: Q01DX009 (ip), vehicle: saline with Tween-80) was 2 of 6. The survivor count (T/C endpoint: mean survival time, dose: 128.0 mg/kg/injection, schedule: Q04DX003 (ip), vehicle: water) was 0 of 6, the survivor count (T/C endpoint: mean survival time, dose: 128.0 mg/kg/injection, schedule: Q04DX003 (iv), vehicle: saline) was 0 of 10 and the survivor count (T/C endpoint: mean survival time, dose: 250.0 mg/kg/injection, schedule: Q01DX001 (ip), vehicle: saline) was 2 of 8. The T/C (T/C endpoint: median survival time, dose: 0.5 mg/kg/injection, schedule: Q01DX009 (ip), vehicle: water) was 129 % of control, the T/C (T/C endpoint: median survival time, dose: 1.0 mg/kg/injection, schedule: Q01DX009 (ip), vehicle: clinical formulation) was 130 % of control and the T/C (T/C endpoint: median survival time, dose: 1.0 mg/kg/injection, schedule: Q01DX009 (ip), vehicle: saline) was 141 % of control. The T/C (T/C endpoint: median survival time, dose: 1.0 mg/kg/injection, schedule: Q01DX009 (ip), vehicle: water) was 134 % of control, the T/C (T/C endpoint: median survival time, dose: 2.0 mg/kg/injection, schedule: Q01DX009 (ip), vehicle: Klucel (hydroxypropylcellulose) (HPC)) was 126 % of control and the T/C (T/C endpoint: median survival time, dose: 2.0 mg/kg/injection, schedule: Q01DX009 (ip), vehicle: clinical formulation) was 141 % of control. For the same molecule, the T/C (T/C endpoint: median survival time, dose: 2.0 mg/kg/injection, schedule: Q01DX009 (ip), vehicle: water) was 149 % of control, the T/C (T/C endpoint: median survival time, dose: 4.0 mg/kg/injection, schedule: Q01DX009 (ip), vehicle: Klucel (hydroxypropylcellulose) (HPC)) was 137 % of control and the T/C (T/C endpoint: median survival time, dose: 8.0 mg/kg/injection, schedule: Q01DX005 (iv), vehicle: clinical formulation) was 127 % of control. The T/C (T/C endpoint: median survival time, dose: 8.0 mg/kg/injection, schedule: Q01DX005 (iv), vehicle: water) was 128 % of control, the T/C (T/C endpoint: median survival time, dose: 8.0 mg/kg/injection, schedule: Q01DX009 (sc), vehicle: Klucel (hydroxypropylcellulose) (HPC), evaluated on day 30) was 131 and 138 % of control and the T/C (T/C endpoint: median survival time, dose: 8.0 mg/kg/injection, schedule: Q01DX009 (sc), vehicle: Klucel (hydroxypropylcellulose) (HPC), evaluated on day 60) was 139 % of control. For the same molecule, the T/C (T/C endpoint: median survival time, dose: 8.0 mg/kg/injection, schedule: Q01DX009 (sc), vehicle: water) was 130 % of control, the T/C (T/C endpoint: median survival time, dose: 16.0 mg/kg/injection, schedule: Q01DX005 (iv), vehicle: clinical formulation) was 144 % of control and the T/C (T/C endpoint: median survival time, dose: 16.0 mg/kg/injection, schedule: Q01DX009 (sc), vehicle: Klucel (hydroxypropylcellulose) (HPC)) was 140 % of control. For the same molecule, the T/C (T/C endpoint: median survival time, dose: 16.0 mg/kg/injection, schedule: Q01DX009 (sc), vehicle: saline) was 130 % of control, the T/C (T/C endpoint: median survival time, dose: 32.0 mg/kg/injection, schedule: Q01DX009 (ip), vehicle: saline) was 137 % of control and the T/C (T/C endpoint: median survival time, dose: 32.0 mg/kg/injection, schedule: Q01DX009 (sc), vehicle: saline) was 147 % of control. The survivor count (T/C endpoint: median survival time, dose: 64.0 mg/kg/injection, schedule: Q01DX005 (iv), vehicle: clinical formulation) was 0 of 10, the survivor count (T/C endpoint: median survival time, dose: 64.0 mg/kg/injection, schedule: Q01DX005 (iv), vehicle: water) was 1 of 10 and the survivor count (T/C endpoint: median survival time, dose: 64.0 mg/kg/injection, schedule: Q01DX009 (ip), vehicle: Klucel (hydroxypropylcellulose) (HPC)) was 4 of 6 and 5 of 6. The survivor count (T/C endpoint: median survival time, dose: 64.0 mg/kg/injection, schedule: Q01DX009 (ip), vehicle: clinical formulation) was 10 of 10, the survivor count (T/C endpoint: median survival time, dose: 64.0 mg/kg/injection, schedule: Q01DX009 (ip), vehicle: water) was 10 of 10 and the T/C (T/C endpoint: median survival time, dose: 64.0 mg/kg/injection, schedule: Q01DX009 (sc), vehicle: saline) was 147 % of control. For the same molecule, the survivor count (T/C endpoint: median survival time, dose: 128.0 mg/kg/injection, schedule: Q01DX009 (ip), vehicle: Klucel (hydroxypropylcellulose) (HPC)) was 0 of 6, the survivor count (T/C endpoint: median survival time, dose: 128.0 mg/kg/injection, schedule: Q01DX009 (ip), vehicle: clinical formulation) was 8 of 10 and the survivor count (T/C endpoint: median survival time, dose: 128.0 mg/kg/injection, schedule: Q01DX009 (ip), vehicle: saline) was 5 of 6. The survivor count (T/C endpoint: median survival time, dose: 128.0 mg/kg/injection, schedule: Q01DX009 (ip), vehicle: water) was 7 of 10, the survivor count (T/C endpoint: median survival time, dose: 128.0 mg/kg/injection, schedule: Q01DX009 (sc), vehicle: Klucel (hydroxypropylcellulose) (HPC)) was 5 of 6 and 9 of 10 and the T/C (T/C endpoint: median survival time, dose: 128.0 mg/kg/injection, schedule: Q01DX009 (sc), vehicle: saline) was 128 % of control. The survivor count (T/C endpoint: median survival time, dose: 128.0 mg/kg/injection, schedule: Q01DX009 (sc), vehicle: water) was 9 of 10, the survivor count (T/C endpoint: median survival time, dose: 256.0 mg/kg/injection, schedule: Q01DX005 (oral), vehicle: Klucel (hydroxypropylcellulose) (HPC)) was 3 of 6 and the survivor count (T/C endpoint: median survival time, dose: 512.0 mg/kg/injection, schedule: Q01DX005 (oral), vehicle: Klucel (hydroxypropylcellulose) (HPC)) was 5 of 6 and 6 of 6. For the same molecule, the survivor count (T/C endpoint: median survival time, dose: 1024.0 mg/kg/injection, schedule: Q01DX005 (oral), vehicle: Klucel (hydroxypropylcellulose) (HPC)) was 6 of 6.
